The list shows a part of the results. These are further read-outs of the screen, such as a control signal, another cell line or another target. No call is given for them. Most of these compounds were active or inconclusive in the main read-out, so they are no random draw. The note in brackets gives the kind of curve behind each potency; many fits are weak.
Test: qHTS Assay for Lipid Storage Modulators in Drosophila S3 Cells;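 for cell number change: cells counted by Cell Tracker Red CMTPX staining in the red channel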
Conditions: BODIPY lipid droplet fluorescence, 18-24 h; for cell number change: measured here: cell count max response, cells fed with added oleic acid
Procedure, shortened: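 Drosophila S3 cells got compounds at several concentrations plus oleic acid (400 uM solution). Laser-scanning cytometry with 488 nm excitation read lipid droplets at 500-530 nm and cells at 575-640 nm. Percent activity was relative to 20 uM Triacsin C.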

[1] = measured here: lipid fluorescence (Fed channel) AC50, cells fed with added oleic acid
[2] = measured here: cell number channel AC50, cells fed with added oleic acid

SMILES | AC50 [1] | cell number change [%] | AC50 [2]
Cc1cccc(C)c1NC(=O)CN(C)C(=O)c1ccccc1OCc1ccc(F)cc1 | 0.0651 µM [rising, full curve, poor fit] |  | 
c1cc(-c2noc(CCC3CCCC3)n2)ccn1 | 7.31 µM [rising, partial curve] | -9.18 | 
Cc1csc2ncc(C(=O)NCCc3ccccc3)c(=O)n12 | 0.651 µM [rising, full curve] |  | 0.411 µM [rising, full curve]
O=C(NCCCO)c1ccc(CSc2nc3ccccc3[nH]2)cc1 | 16.4 µM [falling, single point] | -24.1 | 
Cc1nc2cc(Nc3nnc(-c4ccccc4)c4ccccc34)ccc2n1C | 8.2 µM [falling, partial curve] |  | 
Cc1ccc(S(=O)(=O)NCC(=O)OCc2nnc(-c3ccccc3)o2)cc1 | 0.58 µM [rising, single point] |  | 
COc1cc(/C=N/NC(=O)c2cccnc2)ccc1OS(=O)(=O)c1ccc(C)cc1 |  | 1.91 | 
O=C(CSc1nc(O)cc(=O)[nH]1)N1CCCc2ccccc21 | 0.164 µM [falling, full curve, poor fit] | -22.7 | 
CCc1ccc(NC(=O)C2CCN(S(=O)(=O)c3ccc4c(c3)NC(=O)CO4)CC2)cc1 | 4.11 µM [rising, partial curve, poor fit] | -21.2 | 
CC1=C(C(=O)OC2CCCCC2)C(c2ccc(N(C)C)cc2)NC(=O)N1 (configuration not stated) |  | -29.7 | 
O=[N+]([O-])c1ccc(C2CCCC/C2=N/OCc2ccc(F)cc2)c([N+](=O)[O-])c1 (configuration not stated) | 16.4 µM [falling, single point] | -27.4 | 
COC(=O)c1ccc(OC(=O)c2ccccc2F)cc1 | 4.61 µM [falling, partial curve, poor fit] | 10.6 | 6.51 µM [falling, single point]
Cc1cc(CNC(=O)COc2ccc(F)cc2Cl)cc(C)c1O |  | 34.2 | 6.51 µM [rising, single point]
CCOC(=O)CCCNC(=O)CN1C(=O)NC2(CCCCCC2)C1=O |  | 3.98 | 
CCN(CC(=O)Nc1ccc(NC(C)=O)cc1)C(=O)C1(c2ccccc2)CC1 | 32.6 µM [rising, single point] | 12.3 | 
COc1cc2c(cc1OC)C(c1cccc(Cl)c1)CC(=O)N2 (configuration not stated) |  | -19 | 
Cc1cc(C(=O)O)ccc1NCc1ccncc1 | 18.4 µM [falling, single point] | 7.12 | 

In another format: entries from further up.
SMILES,AC50 [1],cell number change [%],AC50 [2]
Cc1ccc(S(=O)(=O)NCC(=O)OCc2nnc(-c3ccccc3)o2)cc1,"0.58 µM [rising, single point]",,
COc1cc(/C=N/NC(=O)c2cccnc2)ccc1OS(=O)(=O)c1ccc(C)cc1,,1.91,

Next compounds follow.

SMILES | AC50 [1] | cell number change [%] | AC50 [2]
COc1ccc(NC(=O)CCc2nc(-c3ccc(C)cc3)no2)cc1Cl |  | -5.37 | 
Cc1ccc2nc(Nc3ccc(C)c(C)c3)c3nncn3c2c1 | 29.1 µM [rising, single point] | 6.94 | 
Cc1cc(C)cc(NC(=O)CN2CCN(c3ccccc3)CC2)c1 | 0.366 µM [falling, full curve] | -48.1 | 13 µM [falling, partial curve, poor fit]
COc1cccc(C(=O)NNC(=O)c2ccccc2Br)c1 | 0.651 µM [falling, single point] | -0.0113 | 
CCN(CC)C1=N/C(=C\c2ccco2)C(=O)N1c1ccccc1 | 10.3 µM [rising, partial curve] | 550 | 18.4 µM [rising, partial curve]
COc1ccc2cc(C(=O)N3CCN(c4ccc(F)cc4)CC3)[nH]c2c1 | 6.51 µM [falling, single point] |  | 
CCOc1cccc(C(=O)Nc2cccc(C(C)=O)c2)c1 |  | 29.2 | 
COc1cc2ccccc2cc1C(=O)N/N=C/c1ccc2c(c1)OCO2 | 6.51 µM [rising, single point] | -3.47 | 
COc1cccc(OC)c1C(=O)Nc1sc2c(c1C(N)=O)CCN(Cc1ccccc1)C2 |  | 11 | 
Cc1c(C(=O)N2CCCCC2)sc(NC(=O)C2CC2)c1C#N |  | 38.1 | 5.17 µM [rising, partial curve]
CCOC(=O)c1sc(=S)n(-c2ccccc2Cl)c1SC |  | -20.6 | 
COc1ccc(C(=O)Nc2nncs2)cc1S(=O)(=O)N1CC(c2ccccc2)CC1=O (configuration not stated) | 5.17 µM [falling, single point] | 0.845 | 
O=C(O)CCCCOn1ccnc1 | 0.146 µM [falling, partial curve, poor fit] | 6.23 | 
O=S1(=O)CCN2C(c3cccc4ccccc34)=CSC2=N1 | 0.291 µM [falling, partial curve, poor fit] | -28.2 | 
CCN(CC1CCCN(CCc2cccc(F)c2)C1)C(=O)c1cc(C)oc1C (configuration not stated) | 29.1 µM [falling, single point] | 29.2 | 
CCCn1c(SCC(=O)Nc2cc(S(=O)(=O)N3CCCCC3)ccc2C)n[nH]c1=O | 4.61 µM [rising, partial curve, poor fit] | -5.01 | 
